# The whole screen tested about 52,000 sequences, of which about 210 (0.4%) were called active.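 The calls were made as follows: active = gene whose silencing raises cell survival under the drug, median off-target-corrected z-score across its silencing RNAs 2 or more; inactive = the rest.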 The list shows a part of the results.
# Experiment: Resistance to Poly (ADP-Ribose) Polymerase inhibitor: Gene Identification via Genome-wide siRNA Screen
# Conditions: mouse BRCA2 R2336H ES cells, olaparib, CellTiter-Glo viability; hits give high values
# Outline: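 Genome-wide siRNA screen (3 siRNAs/gene, 20 nM) in mouse ES cells carrying hypomorphic BRCA2 R2336H; olaparib 500 nM added 48 h post-transfection, CellTiter-Glo viability 72 h later. Normalized to plate-median negative control; MAD z-scores, gene median, seed-adjusted.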
row,Sequence,z-score
1,GGUUCCUAAGGAUGAACUUTT against 9030611N15Rik,inactive: -0.94
2,GCCGUUAAGUACUUAUAAATT against D8Ertd319e,inactive: 1.03
3,GGAGAAGUUGAUAGCUAAATT against Pax6,inactive: 1.66
4,GGUGGUUACAACCGAAGCATT against Fus,active: 2.95
5,GGGCAAACCUUCUAAACUATT against Ttpa,inactive: -0.446
6,GGAUAAGGCUUUAUGAGAGTT against Cryga,inactive: -0.461
7,GGAGCUUGAUUCGAAGCCUTT against Biklk,inactive: -0.258
8,GGAUCAGUUGGCAAAGCUCTT against D3Ertd789e,inactive: 0.529
9,GGAAGCUCACUAGUAACUUTT against Itgb5,inactive: -0.555
10,GGAUCCAAGUGAACGACCUTT against Ppp1r9b,inactive: 1.48
11,GGAGGACUUCUCCUCCUUCTT against 4930538D17Rik,inactive: 0.601
12,GGAGAUUAUAGGGAAGCUCTT against Il3,inactive: -0.223
13,GGUCGAGGACAAAAAAAAATT against Dner,inactive: 0.332
14,CCAAAACUUUCCACUCUAATT against 1700013G20Rik,inactive: -0.945
15,GGAAAAGAGGAGUGAAAUCTT against Tmsb10,inactive: -1.31
16,GGCUCACUCAUCAAUUCCCTT against 2210010C04Rik,inactive: -0.136
17,GGAUGUGCCCAAGGACAAGTT against Foxc2,inactive: -1.94
18,GGAUCAACGAGGAUCAAGATT against D230014K01Rik,inactive: 0.785
19,UAUCCACUUUACCUUUGUATT against Zfp187,inactive: 0.279
20,GGAUGUCAAAUCUUCCAUATT against Olfr971,inactive: 1.15
21,GGAGUUGUGACUACGGAGATT against MGC67168,inactive: 0.475
22,GGCACUUCCAUGCUAAAUUTT against Gpt1,inactive: 0.801

row,Sequence,z-score
1,GGGACUUUGAUUUUGAGAGTT against Ppp1r3f,inactive: 0.249
2,GCAAAGGAGGCUUCUAUUGTT against Olfr380,inactive: -1.3
3,GGAUAGUCUUUCCAGAUGGTT against Slamf7,inactive: -0.0727
4,CCGAGAACUACCUGUGUAATT against AA407659,inactive: -1.5
5,GGGUGGUACUAAACUCCAUTT against Ptpns1,inactive: -0.599
6,CCGUUUGUCCCAGAUAUGATT against Garnl4,inactive: 1.95
7,GGGAUAGGAAAAAGUAACATT against AI661017,inactive: -0.605
8,GGUCUUCGUGGACAUUCCATT against Arrdc2,inactive: -0.993
9,GGCAGUGGGAAGUCUUUCATT against Kif17,inactive: -0.296
10,GGAAUAUUCAGAAUCCCUCTT against Tnfaip8l3,inactive: 1
11,CGUUGAUCCUUUCUAACAUTT against Olfr888,inactive: -1.97
12,GGAUUUCUCUGCCUGUACUTT against D330012F22Rik,inactive: -1.03
13,GCACCCUCUUAUGAAUUUATT against BC057893,inactive: 0.487
14,GCGGAACUGAUUUAGUUCATT against Kazald1,inactive: -0.788
15,GGCUCACACUCCUGUUAAUTT against BC004044,inactive: -2.59
16,GCUGAAAUACGCUGACAUCTT against Jundm2,inactive: 0.732
17,GGUUGCCCAAAACUCUAGATT against Elovl7,inactive: -0.758
18,GGUGGAGGCAGGAAAAUCUTT against Mrp63,inactive: -0.422
19,GCUACUAUAGCAACCUAACTT against Eef2k,inactive: -0.0224
20,GCAGCCAAUGGGUUCGCUUTT against Hoxa3,inactive: -0.594
21,GCGAUUGUUGCCUAUGGGUTT against Hig1,inactive: 1.91
22,GGUCAUUGGCUUGAGUGCATT against Akp5,inactive: -0.663

# For convenience, some entries already given.
row,Sequence,z-score
14,GCGGAACUGAUUUAGUUCATT against Kazald1,inactive: -0.788
15,GGCUCACACUCCUGUUAAUTT against BC004044,inactive: -2.59
16,GCUGAAAUACGCUGACAUCTT against Jundm2,inactive: 0.732
17,GGUUGCCCAAAACUCUAGATT against Elovl7,inactive: -0.758
18,GGUGGAGGCAGGAAAAUCUTT against Mrp63,inactive: -0.422

# Following part:

row,Sequence,z-score
1,GGAGCUGCUUGCUCAAAGATT against 4930438D12Rik,inactive: 1.16
2,GCUCUACAGUAGAACAAACTT against 4930563A03Rik,inactive: -0.423
3,GCGCGGCUUCAGAAUUAUCTT against A230062G08Rik,inactive: 0.994
4,GGGUCAAAAAGUCAAAUCUTT against V1re9,inactive: 0.589
5,GGUCAUCUGCCACAUGGCATT against 4921530G04Rik,inactive: 1.36
6,GGCGGUUUUUUGUCUAUGCTT against Serpina1e,inactive: -0.238
7,GAGCUCUUGGUGGAUCAUCTT against Foxo3,inactive: -0.584
8,GGGUCAGUGACUAAGCUUCTT against Abca7,inactive: 0.0913
9,GGAAAUCUUCAAACUUAGATT against Tlk2,inactive: 0.884
10,GGCAACAGACAAGAACAAGTT against D830019K17Rik,inactive: 0.425
11,GGGUCUUCAGUAUUAACACTT against 1600012F09Rik,inactive: 0.745
12,GGAGGAUAUGAGCAAGUACTT against Isg20,inactive: -0.104
13,GGCAGCGAAAGUUUUCAAGTT against Pcdhga12,inactive: 1.96
14,GCUGACUCCAUCCUAACAGTT against Cideb,inactive: -0.516
15,CGGGACUAUUAUUACUCCATT against Ap2m1,inactive: 0.665
16,CGAAUACAACCAGUUUCUGTT against Adam11,inactive: 1.65
17,CGACUGAUAGAUGAGUAAATT against C130026L21Rik,inactive: -1.63
18,GCCUAUGGACCAGUUAGAUTT against Nono,inactive: -0.157
19,CCAGGAAUGACACGGGAUGTT against Mdh2,inactive: 0.0125
20,GGUGAAAAGUCUCUGAAUGTT against Pbk,inactive: -0.191
21,GCGACUAGUAGUGCAUGAATT against Wdr13,inactive: -1.81
22,GCAAUCCAUUGAAAGAGGCTT against Hps3,inactive: 0.28

# Reference: PubChem BioAssay AID1347423 (Functional Genomics Laboratory (NCATS/FGL), 2020)
